Data source: PubChem BioAssay AID1508597 (Cure First, 2020)
Screen: 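Genes whose silencing sensitises or protects ovarian cancer cells against rucaparib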 (primary screen). Cell system: human ovarian carcinoma lines grown from tumours: OCI-P5x (papillary serous) and OCI-C5x (clear cell). Reagents: siRNA pool against human genes, 1.25 pmol siRNA per well. Timing: 72 h or 96 h, depending on the cell culture. Treatment: rucaparib 20 µM (about IC30) or vehicle, present until read-out. Detection: 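ATP luminescence measured at 72 or 96 h according to the culture, then normalised and expressed as percent viability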. Reading the numbers: viability, normalised: higher = more viable cells remaining. Active means: 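a well counts as a hit if its normalised viability is under 80 percent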. Meaning of the calls: active = viability under 80%; inactive = viability 80% or more.
Here is a random part of about 2,100 reagents. 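Calls flag viability under 80% in either arm, not effects specific to rucaparib; the reference for percent is not stated.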 Unmarked entries are inactive. The record does not give: the 100% reference.

NDUFA10, rucaparib or vehicle Rucaparib, cell line OCI-C5x (clear cell), technical replicate 1 — viability, normalised (%) = 72.2 (active)
NDUFA10, rucaparib or vehicle Rucaparib, cell line OCI-C5x (clear cell), technical replicate 2 — viability, normalised (%) = 66.6 (active)
NDUFA10, rucaparib or vehicle Rucaparib, cell line OCI-C5x (clear cell), technical replicate 3 — viability, normalised (%) = 60 (active)
NDUFA10, rucaparib or vehicle Rucaparib, cell line OCI-P5x (serous), technical replicate 1 — viability, normalised (%) = 128
NDUFA10, rucaparib or vehicle Rucaparib, cell line OCI-P5x (serous), technical replicate 2 — viability, normalised (%) = 126
NDUFA10, rucaparib or vehicle Rucaparib, cell line OCI-P5x (serous), technical replicate 3 — viability, normalised (%) = 114
NDUFA10, rucaparib or vehicle Vehicle, cell line OCI-C5x (clear cell), technical replicate 1 — viability, normalised (%) = 88.8
NDUFA10, rucaparib or vehicle Vehicle, cell line OCI-C5x (clear cell), technical replicate 2 — viability, normalised (%) = 57 (active)
NDUFA10, rucaparib or vehicle Vehicle, cell line OCI-C5x (clear cell), technical replicate 3 — viability, normalised (%) = 50.9 (active)
NDUFA10, rucaparib or vehicle Vehicle, cell line OCI-P5x (serous), technical replicate 1 — viability, normalised (%) = 98.3
NDUFA10, rucaparib or vehicle Vehicle, cell line OCI-P5x (serous), technical replicate 2 — viability, normalised (%) = 87.8
NDUFA10, rucaparib or vehicle Vehicle, cell line OCI-P5x (serous), technical replicate 3 — viability, normalised (%) = 99.7
MSH3, rucaparib or vehicle Rucaparib, cell line OCI-C5x (clear cell), technical replicate 1 — viability, normalised (%) = 64.9 (active)
MSH3, rucaparib or vehicle Rucaparib, cell line OCI-C5x (clear cell), technical replicate 2 — viability, normalised (%) = 59.8 (active)
MSH3, rucaparib or vehicle Rucaparib, cell line OCI-C5x (clear cell), technical replicate 3 — viability, normalised (%) = 76.4 (active)
MSH3, rucaparib or vehicle Rucaparib, cell line OCI-P5x (serous), technical replicate 1 — viability, normalised (%) = 92.2
MSH3, rucaparib or vehicle Rucaparib, cell line OCI-P5x (serous), technical replicate 2 — viability, normalised (%) = 84.7
MSH3, rucaparib or vehicle Rucaparib, cell line OCI-P5x (serous), technical replicate 3 — viability, normalised (%) = 101
MSH3, rucaparib or vehicle Vehicle, cell line OCI-C5x (clear cell), technical replicate 1 — viability, normalised (%) = 63 (active)
MSH3, rucaparib or vehicle Vehicle, cell line OCI-C5x (clear cell), technical replicate 2 — viability, normalised (%) = 62.3 (active)
MSH3, rucaparib or vehicle Vehicle, cell line OCI-C5x (clear cell), technical replicate 3 — viability, normalised (%) = 73.5 (active)
MSH3, rucaparib or vehicle Vehicle, cell line OCI-P5x (serous), technical replicate 1 — viability, normalised (%) = 101
MSH3, rucaparib or vehicle Vehicle, cell line OCI-P5x (serous), technical replicate 2 — viability, normalised (%) = 87.8
MSH3, rucaparib or vehicle Vehicle, cell line OCI-P5x (serous), technical replicate 3 — viability, normalised (%) = 93.7
GATAD2A, rucaparib or vehicle Rucaparib, cell line OCI-C5x (clear cell), technical replicate 1 — viability, normalised (%) = 42.2 (active)
GATAD2A, rucaparib or vehicle Rucaparib, cell line OCI-C5x (clear cell), technical replicate 2 — viability, normalised (%) = 44.6 (active)
GATAD2A, rucaparib or vehicle Rucaparib, cell line OCI-C5x (clear cell), technical replicate 3 — viability, normalised (%) = 41.4 (active)
GATAD2A, rucaparib or vehicle Rucaparib, cell line OCI-P5x (serous), technical replicate 1 — viability, normalised (%) = 72 (active)
GATAD2A, rucaparib or vehicle Rucaparib, cell line OCI-P5x (serous), technical replicate 2 — viability, normalised (%) = 66.2 (active)
GATAD2A, rucaparib or vehicle Rucaparib, cell line OCI-P5x (serous), technical replicate 3 — viability, normalised (%) = 69.9 (active)
GATAD2A, rucaparib or vehicle Vehicle, cell line OCI-C5x (clear cell), technical replicate 1 — viability, normalised (%) = 49.7 (active)
GATAD2A, rucaparib or vehicle Vehicle, cell line OCI-C5x (clear cell), technical replicate 2 — viability, normalised (%) = 64.1 (active)
GATAD2A, rucaparib or vehicle Vehicle, cell line OCI-C5x (clear cell), technical replicate 3 — viability, normalised (%) = 62.8 (active)
GATAD2A, rucaparib or vehicle Vehicle, cell line OCI-P5x (serous), technical replicate 1 — viability, normalised (%) = 79.5 (active)
GATAD2A, rucaparib or vehicle Vehicle, cell line OCI-P5x (serous), technical replicate 2 — viability, normalised (%) = 83.1
GATAD2A, rucaparib or vehicle Vehicle, cell line OCI-P5x (serous), technical replicate 3 — viability, normalised (%) = 86.7
